Results from patent US20090111751A1, “Method of Removing a Non-Metallic Protein Inhibitor From a Liquid Pharmaceutical Preparation” (Novo Nordisk Health Care AG, priority 2006, published 2009).

Assay: Removal of inhibitor from a rFVIIa formulation on a Chelex 100 column, content by GPC
Conditions: elution volume 0.5 ml to 3 ml
Experimental: The ability of Chelex 100 to remove inhibitor 2-[3-(4-Carbamimidoylphenyl)-ureido]-N-[1-(3-methoxyphenyl)-ethyl]-acetamide from a rFVIIa formulation was investigated in the following way: […]
A (frozen) solution of rFVIIa bulk containing 1.4 mg/ml rFVIIa, 50 mM NaCl, 10 mM CaCl2 2H2O and 10 mM Glycylglycine was thawed and mixed with an inhibitor solution of 4.5 mM inhibitor 2-[3-(4-Carbamimidoylphenyl)-ureido]-N-[1-(3-methoxyphenyl)-ethyl]-acetamide containing 50 mM NaCl, 10 mM CaCl2 2H2O and 10 mM Glycylglycine.
The mixture ratio was: rFVIIa bulk:inhibitor solution=2:1. the final solution 10 mM histidine was added and pH was adjusted to 6.50.
Chelex was prepared in the following way:
A NAP™ column from Pharmacia was emptied for column material which was replaced by Chelex 100 material corresponding to a column height of approximately 3 mm. The column was equilibrated with the following buffer: 50 mM NaCl, 10 mM Histidine and 10 mM Glycylglycine, pH=6.50.
10 ml of the rFVIIa/inhibitor solution was added to the column in aliquots of 0.5 ml and was collected in fractions of 0.5 ml.
The samples was analysed for content of inhibitor and rFVIIa by GPC.

With `COc1cccc(C(C)NC(=O)CNC(=O)Nc2ccc(C(=N)N)cc2)c1` (centres unmarked) [2-[3-(4-Carbamimidoylphenyl)-ureido]-N-[1-(3-methoxyphenyl)-ethyl]-acetamide] the “inhibitor concentration in eluate after Chelex 100 column” value (initial value 1.5 mM, pH 6.50) was “less than 175 microM” and the “reduction factor of inhibitor concentration” value (relative to initial value 1.5 mM) was “approximately 10”.
